{
  "source": "PubChem BioAssay AID504467",
  "about": "(National Center for Advancing Translational Sciences (NCATS), 2011)",
  "note": "The whole screen tested about 330,000 compounds, of which about 7,700 (2.3%) were called active. Inconclusive means that the source gave no clear call. Such entries were picked first, then a sample of the others. Calls come from the whole dose curve; as a rule, active = well fitted inhibition curve with a large enough effect; inconclusive = small, poorly fitted or top-dose-only effect, or effect the other way; inactive = flat fitted curve, though single readings scatter. Potencies of inconclusive entries are doubtful fits and often do not repeat. Potency is the fitted concentration of half-maximal effect.",
  "data": [
    {"test": "qHTS screen for small molecules that inhibit ELG1-dependent DNA repair in human embryonic kidney (HEK293T) cells expressing luciferase-tagged ELG1; note: nearly all actives have a fitted effect of over 55% in size", "details": "HEK293T ELG1-luciferase reporter, luminescence, 16 h, DNA damage induced by 5-fluorouridine; series mostly up to 46.1 µM", "method_in_brief": "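5-Fluorouridine DNA damage + compound/DMSO, 2,000 cells/well, 16 h, 37 °C/5% CO2. ONE-Glo, 30 min RT, luminescence. Readout = decrease in reporter signal.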", "values": [
      {"smiles": "COc1ccccc1/C=C/C(=O)Nc1nc(N)n(-c2ccccc2)n1", "Potency": "inconclusive: 29.1 µM [activator, partial curve, poor fit]"},
      {"smiles": "COc1ccccc1CN(Cc1cc2c(C)ccc(C)c2[nH]c1=O)Cc1nnnn1Cc1ccco1", "Potency": "active: 18.4 µM"},
      {"smiles": "O=C(Cc1ccccc1)Nc1ccc2c(c1)CCC2", "Potency": "inconclusive: 20.6 µM [activator, partial curve]"},
      {"smiles": "O=C(c1ccc(Cn2c(=S)[nH]c3ccc(Br)cc3c2=O)cc1)N1CCN(C2CCCCC2)CC1", "Potency": "inconclusive: 29.1 µM [inhibitor, single point]"},
      {"smiles": "C=CCOC(=O)/C=C/C(=O)NC(N)=O", "Potency": "inactive"},
      {"smiles": "CCOC(=O)c1sc(S(C)(=O)=O)c2c1CC(C)(C)C/C2=N/O", "Potency": "inactive"},
      {"smiles": "O=C(Nc1ncnc2sc3c(c12)CCC3)c1ccco1", "Potency": "inconclusive: 10.3 µM [activator, partial curve]"},
      {"smiles": "O=C(c1ccccc1)N1CCC(c2nc(-c3ccc(S(=O)(=O)NCC4CCCO4)cc3)no2)CC1", "note": "(stereo not drawn)", "Potency": "inconclusive: 2.59 µM [inhibitor, partial curve]"},
      {"smiles": "O=c1c2ccccc2nc(/C=C/c2ccccc2)n1CCc1ccccc1", "Potency": "active: 20.6 µM"},
      {"smiles": "COc1ccc(NC(=O)C2CCN(S(=O)(=O)c3ccc4c(c3)NC(=O)C(C)S4)CC2)cc1", "note": "(stereo not drawn)", "Potency": "inconclusive: 29.1 µM [inhibitor, single point]"},
      {"smiles": "CC1(CC(=O)Nc2ccccc2)NC(=S)N(c2ccccc2)N1", "note": "(stereo not drawn)", "Potency": "inconclusive: 18.3 µM [activator, single point]"},
      {"smiles": "COc1cccc(N/C=C/c2onc(C)c2[N+](=O)[O-])c1", "Potency": "inconclusive: 5.17 µM [activator, partial curve]"},
      {"smiles": "c1ccc(-c2nnn(C34CC5CC(CC(C5)C3)C4)n2)cc1", "Potency": "inconclusive: 16.4 µM [activator, single point]"},
      {"smiles": "Cc1ccc(N(C(=O)NC2CCCCC2)C2=NCCCCC2)cc1", "Potency": "inconclusive: 23.1 µM [activator, single point]"},
      {"smiles": "Cc1oc(S(=O)(=O)N2CCCC2)cc1C(=O)Nc1ccc(F)cc1", "Potency": "inconclusive: 18.3 µM [inhibitor, single point]"},
      {"smiles": "COc1ccc(C(C(=O)NCC2CCCO2)N(Cc2ccc(F)cc2)C(=O)CNC(=O)c2ccco2)cc1OC", "note": "(stereo not drawn)", "Potency": "inactive"},
      {"smiles": "CCCCn1c(N)c(N(CCOC)C(=O)COC(=O)C(C)(C)Oc2ccc(Cl)cc2)c(=O)[nH]c1=O", "Potency": "inconclusive: 0.103 µM [inhibitor, full curve, poor fit]"},
      {"smiles": "COc1ccc(OC)c(/C=N\\NC(=O)c2ccc(=O)n(C)c2)c1", "Potency": "inconclusive: 16.4 µM [activator, partial curve, poor fit]"},
      {"smiles": "COCCNC(=O)Nc1ccc2nc(C)sc2c1", "Potency": "inconclusive: 29.1 µM [activator, single point]"},
      {"smiles": "Cc1ccc(C2=NN(Cc3nnc(-c4ccccc4)o3)C(=O)SC2)cc1", "Potency": "inconclusive: 18.4 µM [inhibitor, partial curve, poor fit]"},
      {"smiles": "CCOc1ccc(-c2csc(NC(=O)c3ccc(S(=O)(=O)N4CCc5ccccc5C4)cc3)n2)cc1", "Potency": "inactive"},
      {"smiles": "CC1=C([N+](=O)[O-])C(c2ccc(Cl)cc2)NC(=O)N1", "note": "(stereo not drawn)", "Potency": "inactive"},
      {"smiles": "Cc1ccc(OS(=O)(=O)c2ccc(-c3csc(C)n3)s2)c(C)c1", "Potency": "inconclusive: 18.3 µM [inhibitor, partial curve, poor fit]"},
      {"smiles": "Oc1ccc(-c2nc3cnccn3c2Nc2ccc3c(c2)OCCO3)cc1", "Potency": "inconclusive: 13 µM [activator, partial curve, poor fit]"},
      {"smiles": "CN1CCN(CC(=O)Nc2ccccc2Sc2ccccc2)CC1", "Potency": "inactive"},
      {"smiles": "CCCNC(=O)C12CCC(C)(C(=O)O1)C2(C)C", "note": "(stereo not drawn)", "Potency": "inconclusive: 29.1 µM [activator, single point]"},
      {"smiles": "CC(Oc1ccc(Cl)cc1Cl)C(=O)Nc1ccc2oc(-c3ccncc3)nc2c1", "note": "(stereo not drawn)", "Potency": "inconclusive: 2.06 µM [inhibitor, partial curve, poor fit]"},
      {"smiles": "CC(Sc1nc2ccccc2s1)C(=O)Nc1nnc(C(C)C)s1", "note": "(stereo not drawn)", "Potency": "inactive"},
      {"smiles": "CCCn1c(N)c(C(c2ccc(C(=O)OC)cc2)N2CCN(c3ccccc3)CC2)c(=O)[nH]c1=O", "note": "(stereo not drawn)", "Potency": "inconclusive: 18.4 µM [activator, single point]"},
      {"smiles": "O=C(Nc1ccon1)c1sc2cc(F)ccc2c1Cl", "Potency": "inconclusive: 11.6 µM [activator, partial curve]"},
      {"smiles": "CC1(C)C(=O)Nc2ccccc2N1C(=O)COC(=O)c1ccc(Cl)c(S(=O)(=O)NCc2ccccc2)c1", "Potency": "active: 20.6 µM"},
      {"smiles": "Cc1ccccc1C(=O)N1CCN(c2ccc(NC(=O)c3cccnc3)cc2)CC1", "Potency": "inconclusive: 14.6 µM [inhibitor, partial curve]"},
      {"smiles": "Cc1cc(C(=O)N/N=C/c2cc(Cl)cc([N+](=O)[O-])c2O)c2ccccc2n1", "Potency": "inconclusive: 29.1 µM [inhibitor, single point]"},
      {"smiles": "COc1ccc(Cl)cc1NC(=O)COC(=O)c1cc(C)oc1C", "Potency": "inactive"},
      {"smiles": "C=CCNc1ncnc2c1cnn2-c1ccc(OC)cc1", "Potency": "inconclusive: 6.51 µM [activator, single point]"},
      {"smiles": "Cn1c(SCC(=O)c2ccccc2)nnc1-c1cccc(N)c1", "Potency": "inconclusive: 23.1 µM [activator, partial curve]"},
      {"smiles": "c1ccc2c(c1)oc1c(NCC3CCCO3)ncnc12", "note": "(stereo not drawn)", "Potency": "inconclusive: 14.6 µM [activator, partial curve]"},
      {"smiles": "Cc1ccccc1C(=O)NNC(=S)NC(=O)c1ccccc1", "Potency": "inactive"},
      {"smiles": "CC(=O)c1cccc(NC(=O)c2ccc3c(c2)CCN3S(=O)(=O)c2ccccc2)c1", "Potency": "inconclusive: 29.1 µM [inhibitor, single point]"},
      {"smiles": "CN(C(=O)c1ccccn1)c1nnc(-c2ccccn2)s1", "Potency": "inconclusive: 16.4 µM [activator, partial curve]"},
      {"smiles": "CCOC(=O)c1ccc(Nc2nc(=O)c3cccnc3s2)cc1", "Potency": "inconclusive: 18.4 µM [activator, partial curve]"},
      {"smiles": "COCCNC(=O)c1cc2c3ccccc3n(C)c2s1", "Potency": "inconclusive: 18.4 µM [inhibitor, single point]"},
      {"smiles": "COC(=O)c1c(NC(=S)NC(=O)c2ccco2)sc2c1CCCC2", "Potency": "inconclusive: 18.4 µM [activator, partial curve, poor fit]"}
    ]}
  ]
}
